In patent US20040001822A1, “Y1-isolated molecules comprising epitopes containing sulfated moieties, antibodies to such epitopes, and uses thereof” (priority 2000, published 2004):

Key:
[1] = biological target: fibrinogen γ prime (human); test: Western blot of human plasma proteins
[2] = biological target: fibrinogen γ prime (human); test: summary of the experiments
[3] = biological target: fibrinogen γ prime (human); test: immunoblot of human plasma, purification and peptide mapping

binding [1]: binds
binding [2]: binds
binding [3]: binds
B1: Y1 scFv (scFv)
scFv: EVQLVESGGGVVRPGGSLRLSCAASGFTFDDYGMSWVRQAPGKGLEWVSGINWNGGSTGYADSVKGRFTISRDNAKNSLYLQMNSLRAEDTAVYYCARMRAPVIWGQGTLVTVSRGGGGSGGGGSGGGGSSELTQDPAVSVALGQTVRITCQGDSLRSYYASWYQQKPGQAPVLVIYGKNNRPSGIPDRFSGSSSGNTASLTITGAQAEDEADYYCNSRDSSGNHVVFGGGTKLTVLGAAAEQKLISEEDLNGAA

Results are given in words; binding and its absence hold for the method and conditions named. Binding can be weak; no strength is given.
